Test results from article PMC8369502, “High-Throughput Drug Screening System Based on Human Induced Pluripotent Stem Cell-Derived Atrial Myocytes ∼ A Novel Platform to Detect Cardiac Toxicity for Atrial Arrhythmias” (Frontiers in Pharmacology, 2021).
“Also recorded” adds a separate entry of the source.

Tested on: CT (control hiPS-CMs without RA, ventricular-like)
Experiment: High-throughput membrane potential recording (FluoVolt, FDSS/μCell) in CT
Type: cell-based, human
Description: Using a high-throughput screening system (FDSS/μCell), we assessed the drug toxicity of several experimental drugs on hiPS-derived atrial myocytes as well as control hiPS-derived cardiomyocytes. Membrane potential was used as one of the parameters during the assessment.
After purification, hiPS-derived cardiomyocytes were plated in 96-well plates for downstream drug response assessment using FluoVolt™ Membrane Potential Kit. […] The comparison of variance in the response of drug administration in CT and AM was represented by the percentage of changes based on their baseline values respectively.
FluoVolt™ Membrane Potential Kit (ThermoFisher […], F10488, Massachusetts, United States) was used to measure membrane potentials. The basic procedure was performed in accordance with the manufacturer’s instructions. […] MP were recorded at excitation and emission stages at wavelengths of 470 and 540 nm, respectively. […] Stock solutions of the test compounds were prepared in 100% DMSO, and serially diluted 1/40 into compound plates for testing (0.5% DMSO was the maximum concentration in all wells). The compounds were automatically pipetted from the compound plate, and 12 μL was loaded in the wells already containing the cells with 48 μL of media. Recording data were analyzed using Waveform Analysis of Cardiomyocyte Software (Ver.1.2.1J, Hamamatsu Photonics K.K.). Data values for a well were averaged from waveforms that arose during 30 s. The beat rate (BR; beats per minute), waveform amplitude (AMP), and duration at 30, 50, and 80% of decay (PWD30, PWD 50, and PWD 80, respectively) were used as evaluation parameters. PWDs were corrected using the Fridericia formula. PWD30-80 was calculated as the difference between PWD80 and PWD30. Each parameter was calculated as percentage change (%) from the value before test compound addition.

Compound: Cc1cccc(CCN2CCC(C(=O)c3ccc(NS(C)(=O)=O)cc3)CC2)n1 [E-4031]
- EAD / irregular beating (in words): EAD was elicited; also recorded: increased the incidence of EAD in a dose-dependent manner
- incidence of arrhythmia-like waveforms: EAD (0.01 μM): 50%
- incidence of arrhythmia-like waveforms: EAD (0.03 μM): 83%
- incidence of arrhythmia-like waveforms: EAD (0.1 μM): 83%
